In PubChem BioAssay AID504848 (National Center for Advancing Translational Sciences (NCATS), 2011):
The whole screen tested about 2,300 compounds, of which about 1,400 (61%) were called active. The set was probably picked from earlier hits. The inconclusive results got no clear call from the source; some entries with a clear call stand among them for comparison. The call rests on the fitted dose curve; in most records, active means well fitted inhibition curve with a large enough effect; inconclusive means small, poorly fitted or top-dose-only effect, or effect the other way; inactive means no such curve, though single readings can be large or run the other way. A potency beside an inconclusive call is a rough fit, not a confirmed value.

Assay: Confirmation screen for delayed death inhibitors of the malarial parasite plastid, 96 hour incubation; further: nearly all actives have a fitted effect of over 60% in size
Conditions: P. falciparum luciferase growth in erythrocytes; series mostly up to 28.7 µM; activity change, negative = inhibition: at the top concentration
Outline: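 Erythrocytes infected with luciferase-expressing P. falciparum (2% hematocrit, 0.1% parasitemia final) in RPMI 1640 with 0.5% Albumax, exposed to compounds 96 h at 37 C, 5% CO2. Growth inhibition read as decreased luciferase luminescence.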
On the % scale 0 is the no-effect control and ±100 the full control effect; potency means the concentration at half of the fitted maximal effect.

Row | SMILES | Potency | activity change, negative = inhibition
1 | O=C1C(=O)N(Cc2ccncc2)C(c2cccc(O)c2)/C1=C(\O)c1ccc2c(c1)OCCO2 (stereo not drawn) | inconclusive: 0.141 µM [inhibitor, full curve, poor fit] | –
2 | COc1cc(/C=C/C(=O)OCC(=O)Nc2c(C)n(C)n(-c3ccccc3)c2=O)cc(OC)c1OC | inconclusive: 10 µM [inhibitor, partial curve, poor fit] | –
3 | Cn1cc([N+](=O)[O-])c(C(=O)Nc2nccs2)n1 | – | inactive: -17.4%
4 | O=C(CSc1nnc(NC(=O)C2CC2)s1)Nc1cccc(F)c1 | inconclusive: 0.141 µM [activator, full curve, poor fit] | –
5 | C=CCN(CC=C)C(=O)C1CCN(S(=O)(=O)c2ccc(N3CCCC3=O)cc2)CC1 | active: 5.01 µM | –
6 | N#CC(C#N)=C1C=CC=CN1/C(=C\c1ccco1)C(=O)c1ccc(Br)cc1 | inconclusive: 15.8 µM [inhibitor, single point] | –
7 | CC(C)NC(=O)c1onc(CSc2ccc(C(C)C)cc2)c1C(=O)O | inconclusive: 15.8 µM [inhibitor, partial curve, poor fit] | –
8 | Cc1ccc(OCC(=O)Nn2cnnc2)c(Br)c1 | – | inactive: 8%
9 | CCOC(=O)c1ccccc1NC(=O)C1CC(=O)N(C2CCCCC2)C1 (stereo not drawn) | inconclusive: 11.2 µM [inhibitor, partial curve] | –
10 | OCC1(CCOc2ccccc2)CCN(Cc2nc3ccc(F)cc3[nH]2)CC1 | active: 12.6 µM | –
11 | COc1cc(/C=C/C(=O)c2ccc(NS(=O)(=O)c3ccc(C)cc3)cc2)ccc1OC(F)F | inconclusive: 0.501 µM [inhibitor, full curve, poor fit] | –
12 | O=C(Nc1ccncc1)c1ccc(Cl)c(S(=O)(=O)N2CCCC2)c1 | active: 8.91 µM | –
13 | CCC(C)[C@H](NC(=O)[C@H](Cc1ccccc1)n1c(=O)[nH]c2ccccc2c1=O)C(=O)NCC1CCC(C(=O)O)CC1 (stereo partly drawn) | active: 11.2 µM | –
14 | CCn1nc(C)c(NC(=O)CC23CC4CC(CC(C4)C2)C3)c1C | – | inactive: -11.8%
15 | O=C(CCS(=O)(=O)c1ccccc1)Nc1nc2c(s1)COc1ccccc1-2 | inconclusive: 11.2 µM [inhibitor, partial curve, poor fit] | –
16 | CC(C)(C)Nc1nc(-c2ccc3c(c2)CCN3C(=O)C2CC2)cs1 | inconclusive: 3.98 µM [activator, partial curve] | –
17 | O=C/C=C/c1c(-c2ccccc2)cc2oc3ccccc3cc1-2 | inconclusive: 15.8 µM [inhibitor, single point] | –
18 | O=C(Nc1ccc(N2CCN(C(=O)c3cccs3)CC2)cc1)c1ccc([N+](=O)[O-])o1 | active: 2.24 µM | –
19 | COc1ccccc1N1CCN(C(=O)c2ccc3[nH]c4c(c3c2)CCCC4)CC1 | active: 11.2 µM | –
20 | CN(c1ccccc1)S(=O)(=O)c1nnc(NC(=O)COc2ccccc2F)s1 | active: 12.6 µM | –
21 | Nc1ccccc1SSc1ccccc1N | active: 7.94 µM | –
22 | C=CCNC(=O)c1onc(CSc2cc(C)cc(C)c2)c1C(=O)O | inconclusive: 3.98 µM [inhibitor, partial curve, poor fit] | –

Entries of single compounds, looked up by structure. Values in the order: Potency | activity change, negative = inhibition
COc1cc(/C=C/C(=O)c2ccc(NS(=O)(=O)c3ccc(C)cc3)cc2)ccc1OC(F)F is entered as inconclusive: 0.501 µM [inhibitor, full curve, poor fit] | –
O=C/C=C/c1c(-c2ccccc2)cc2oc3ccccc3cc1-2 is entered as inconclusive: 15.8 µM [inhibitor, single point] | –

Next part:

Row | SMILES | Potency | activity change, negative = inhibition
23 | O=c1c2c3c(sc2nc(NCCOCCO)n1Cc1ccco1)CCCCC3 | inconclusive: 5.01 µM [inhibitor, full curve, poor fit] | –
24 | O=C(C=C=Nc1ccccc1)C(=O)N=C=Cc1ccccc1 | active: 7.94 µM | –
25 | Cc1cc(C(=O)COc2cccnc2[N+](=O)[O-])c(C)n1-c1ccccc1F | inconclusive: 12.6 µM [inhibitor, partial curve, poor fit] | –
26 | COc1ccc(CNC(=O)C2CCC(CNS(=O)(=O)c3cccc4cccnc34)CC2)cc1 (stereo not drawn) | inconclusive: 5.62 µM [inhibitor, partial curve, poor fit] | –
27 | CCn1cc(C(=O)O)c(=O)c2cc(F)c(N/N=C/c3ccccc3)cc21 | active: 10 µM | –
28 | O=C1C2CCCN2C(=O)N1CCCCN1CCN(c2cccc(Cl)c2)CC1 (stereo not drawn) | inconclusive: 17.8 µM [inhibitor, single point] | –
29 | N=c1c2c(n(Cc3ccc(Cl)c(Cl)c3)c3c1CCC3)CCCC2 | inconclusive: 0.1 µM [inhibitor, full curve, poor fit] | –
30 | COc1ccc(Nc2cc(Cl)ccc2C(=O)O)cn1 | – | inactive: -63.4%
31 | Cc1ccc[n+](CC(=O)Nc2ccc(C)c(C)c2)c1 | inconclusive: 5.01 µM [inhibitor, partial curve, poor fit] | –
32 | CCCCNC(=O)c1onc(CSc2ccc(Cl)cc2)c1C(=O)O | – | inactive: -5.24%
33 | C=CCNC(=S)N/N=C/c1ccc(-c2cc(Cl)ccc2Cl)o1 | inconclusive: 11.2 µM [inhibitor, partial curve, poor fit] | –
34 | Cc1c(C#N)c(NC(=O)CCl)n(Cc2cccs2)c1C | inconclusive: 0.282 µM [inhibitor, full curve, poor fit] | –
35 | CCOC(=O)CC(Nc1nc(N2CCOCC2)nc(N2CCOCC2)n1)c1ccccc1Cl (stereo not drawn) | active: 3.98 µM | –
36 | Cc1ccc(CC(=O)Nc2nc3c(s2)CCCC3)cc1 | inconclusive: 17.8 µM [activator, partial curve, poor fit] | –
37 | O=C(Nc1cccc(Cl)c1)Nc1ccccc1C(=O)O | inconclusive: 3.98 µM [activator, full curve] | –
38 | COc1ccc(/C=N/NC(=O)c2ccoc2C)cc1COc1c(C)cccc1C | inconclusive: 7.94 µM [inhibitor, partial curve, poor fit] | –
39 | C=CCC(=O)N(CC)CC1CCCN(CCc2cccc(F)c2)C1 (stereo not drawn) | inconclusive: 15.8 µM [inhibitor, single point] | –
40 | O=C(CSc1nnc(-c2ccccc2Cl)o1)N1CCCCC1 | inconclusive: 0.112 µM [activator, full curve, poor fit] | –
41 | CC(C)c1ccc2[nH]c(O)c(N=NC(=O)c3ccc(CSc4nncn4C)cc3)c2c1 | active: 2.24 µM | –
42 | Cc1cccc(Oc2ccccc2NC(=O)CSCC(=O)Nc2cc(C)on2)c1 | inconclusive: 11.2 µM [inhibitor, partial curve, poor fit] | –
43 | O=c1[nH]c(SCc2nc3c(cnn3-c3ccccc3)c(=O)[nH]2)nc2ccccc12 | inconclusive: 12.6 µM [activator, single point] | –
